Measurements as given in patent US20170107282A1 (CELL MEDICA SWITZERLAND, published 2017).
These are yes or no findings as the source states them, for the method shown. Some binding calls cover weakened binding; strength is not graded here.

Sequences of proteins named here, by UniProt entry; tags and fusion partners are left off. A change or cut given only in a name is not applied to a line headed by its entry. A line that says so, or that is headed by a name, gives the form on record, which may keep a tag or linker.
transmembrane (tm) human TNF alpha, A1-12 variant, on CHO cells (P01375, form named): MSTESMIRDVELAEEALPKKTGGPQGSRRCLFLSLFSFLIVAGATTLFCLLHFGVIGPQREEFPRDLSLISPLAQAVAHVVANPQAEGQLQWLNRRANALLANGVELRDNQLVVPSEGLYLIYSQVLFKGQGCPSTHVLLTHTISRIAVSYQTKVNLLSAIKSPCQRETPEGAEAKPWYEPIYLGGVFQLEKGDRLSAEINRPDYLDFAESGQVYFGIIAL

Key:
[1] = target: transmembrane (tm) human TNF alpha, A1-12 variant, on CHO cells (human) (UniProt P01375); test: flow cytometry on CHO cells expressing tmTNF alpha (refers back to Example 2)
[2] = target: transmembrane (tm) human TNF alpha, A1-12 variant, on CHO cells (human) (UniProt P01375); test: flow cytometry on tmTNF alpha-expressing CHO cells
[3] = target: transmembrane (tm) human TNF alpha, A1-12 variant, on CHO cells (human) (UniProt P01375); test: flow cytometry on CHO cells expressing tmTNF alpha, biotinylated protein L and PE-streptavidin

Measured: binding

B1: scFv1 (scFv)
scFv: EIVMTQSPSTLSASVGDRVIITCQASQSISSYLAWYQQKPGKAPKLLIYWASTLASGVPSRFSGSGSGTEFTLTISSLQPDDFATYYCQSYYYTSNNSDGFWAFGQGTKLTVLGGGGGSGGGGSGGGGSGGGGSEVQLVESGGGLVQPGGSLRLSCKASGIDFSNSGITWVRQAPGKGLEWVGYIYPGFGIRNYANSVRGRFTISRDTSKNTVYLQMNSLRAEDTAVYYCARDPIYASSSGYADIWGQGTLVTVSS
binds: all assays above
